According to the supplement of paper PMC5949888:
Most values lie at the floor of the assay. Slopes are relative: functional sequences can read slightly below zero.

What follows are substances tested on Saccharomyces cerevisiae PS128 hsf1 delta, HSF1(1-493) fusion (assay: growth estimate (transactivation domain function in HSF1 fusion, heat-shock survival) (a.u. (slope of normalised read count over time)); higher = stronger growth at 37°C, i.e. more transactivation activity). Conditions: library: random library.

Substance | growth estimate
QSQLLPGCRAHKHRARLCKR | < -0.25
LRERYAGLELADNGCDRLG | < -0.25
FISGKGHTAWPVNAGGKRVP | < -0.25
RLGDSHVSASLGERDHLLW | -0.229
PTEATYARLFHINTRSGWSL | 1.4
AVVARRYG | < -0.25
SVRRRSLLIRGDVVHHANRT | < -0.25
KGLLVVIPGVQRYEFAAVLP | < -0.25
VSVVEASTARVNVDSVPSSK | < -0.25
ISLVA | < -0.25
KRTRVLTDGEP | < -0.25
SGETFARTSRLYCHVECRPV | < -0.25
IQRYLGSAVTI | < -0.25
GRVWFVVRWEVLATSWYHRC | < -0.25
YMLVGRNEQRYWGRTRCIEI | < -0.25
QETACPTLSVCGLVREARGP | < -0.25
RQIYMGPTWVFATIWM | < -0.25
VWVIRWQIVDRVEHSL | < -0.25
ATLHALIGLRLGGYTVISVP | < -0.25
GFSGSPAGTIALSSLRFSFK | < -0.25
RCKEKRESCRSGT | < -0.25
FLLPDRWRYPIIIELY | < -0.25
NYCSWSLERLS | < -0.25
LHSTCYQSED | < -0.25
RLLSNFRFPWSSSAQSPRLV | < -0.25

Substance | growth estimate
LGLRP | < -0.25
CWLTG | < -0.25
GLTL | < -0.25
DDLRRAEHSAAQRLVYLVQS | < -0.25
GRPERSARV | < -0.25
ILCASQMGRSWIGQIQIFSL | < -0.25
LNLGNFDKLIKLRVA | < -0.25
YPWPSHGVSKIPDTRFTTPH | < -0.25
SLRF | < -0.25
LVPRTSSGAYVH | < -0.25
GCLLTA | < -0.25
TGVP | < -0.25
HLAILAVRRLRLSRDLFTTT | < -0.25
GLRCWWRHTIVLGPVDLVPP | < -0.25
KLASSLSSQSSPMSEP | -0.243
GSVKENWDPRTLRSYVPMF | < -0.25
APSNNK | < -0.25
EKREPGLKKGWLVLDSRTVR | < -0.25
KLLRQGVKAAGGC | < -0.25
GLDCSEYTVFRERGAPGGFR | < -0.25
HHKVGTYAIGTSLTRFLFID | < -0.25
GVYKQRADSHFYTAQRQVRV | -0.202
IITA | < -0.25
TRSS | < -0.25
VLAYKYMRLDEWHGNKQAQG | < -0.25

Substance | growth estimate
NRVIKLVPIRGHVKRLLARE | < -0.25
PATHDGTIIVLRFMILIGSP | -0.25
CDEARERDLRLSSEVITICR | < -0.25
MGFKLEES | < -0.25
RLGCETVKSFLGVPSGITAR | < -0.25
RGILPGWFLALNVCMSAVMW | < -0.25
LLPKP | < -0.25
VTCT | < -0.25
RVLRPRPHLLRGD | < -0.25
KSRSMRLIRKKEANERSQGS | < -0.25
VHSGASSGKTIHKVIDIAWN | < -0.25
KVARYL | -0.237
LAEPLGIECEPSCSIVKTIH | -0.198
GNLNHVRQHMRYLVGIFPSA | < -0.25
VAVKITL | < -0.25
SKRTSM | < -0.25
GSRSTESELESLEHVVSPRP | -0.243
NLARVYPEAQEYKYFGHSAE | < -0.25
CVFEQIGSSVTVTHGPSEER | < -0.25
AVGEKELAEATRQRNSVARV | < -0.25
LASME | < -0.25
GGSGAQNGST | < -0.25
QCMPMEI | < -0.25
YKRFRP | < -0.25
RGNFMGWYFGSESETWILCG | < -0.25

Substance | growth estimate
RLGARNSLL | < -0.25
TVIRASFWAVRPTNALPAGK | < -0.25
AGTSPR | < -0.25
GPKAIAMEQRRDGSKTEWCA | < -0.25
EEPMHSNPAVIKSRGDVRAS | < -0.25
SLIPSNRSAVSSRRYSGGLF | < -0.25
SANVQAILTGRLRTASH | < -0.25
PACDCSVNKHYLLMGGWLLR | -0.246
WDSFAVSLRD | < -0.25
YCNKSSPCGMRLIGVRTVPV | 0.17
AHLI | < -0.25
EVRGAHSLTVVHPLWIDAPR | < -0.25
PIV | < -0.25
VLGDSLRCMIRST | < -0.25
PGFGVGQVSCGSCCKLFAV | < -0.25
GVGVRMPKAAVDSGLGIDCS | < -0.25
VSERFNSCDVSRPGRESVFA | < -0.25
RCRLCIE | < -0.25
SYFLPRYDLRRAIPLCKVL | < -0.25
PCEKSGFSLGTSWCSWVVGL | < -0.25
PGGIIRSLGSCNWHGMVPRM | < -0.25
LWGANHAVGGNRGVSIVSLY | < -0.25
LEKFLCQDSK | < -0.25
HLFPDRTRHITHPSDQ | < -0.25
GNCDAHQA | < -0.25

Substance | growth estimate
ATIYQRMLSLQGTRSYSRLA | < -0.25
QARESRPLRKNRENGCGLEG | < -0.25
HSSGGSWRVTGAWLLAVYPC | < -0.25
SGFYGARRIII | < -0.25
LIAREPTRILRPTASFSSHS | < -0.25
PLEVTAETGPIHGVESCNLW | < -0.25
YPPLGFFGGRSVLQQTRQLP | < -0.25
LKTLGERGNRCSNYCTWNSP | < -0.25
EYCPGVEIRTVKHRIFILKN | < -0.25
VCIRYITIAAHKRE | < -0.25
SALVCVNLDMRHKLASRTFR | -0.246
LYMWFAAGFPCVRWVSVPIH | < -0.25
GPGDSAPFASLALVFSSA | < -0.25
VLSGLESTLLSWRSGCANMF | -0.0471
TCDYSRPGMVRLAILLTGDD | < -0.25
RDQKVLH | < -0.25
LGPLTLIPRVQRCKYGEGIT | < -0.25
NDVKSYCN | < -0.25
RVCVCGDVPWDLVI | -0.0547
RGRRFLSAWQDLRPIARTTG | < -0.25
LLLNRR | < -0.25
IVLPVGYTDIFEC | 5.18
QARVLLRTFVVRVPRVHSSS | < -0.25
AQEAQFFA | < -0.25
SRIEISESGCVYLSTHRARI | < -0.25

Copied from above for reference:
Substance | growth estimate
QSQLLPGCRAHKHRARLCKR | < -0.25
LRERYAGLELADNGCDRLG | < -0.25
FISGKGHTAWPVNAGGKRVP | < -0.25
RLGDSHVSASLGERDHLLW | -0.229
PTEATYARLFHINTRSGWSL | 1.4
AVVARRYG | < -0.25
SVRRRSLLIRGDVVHHANRT | < -0.25
KGLLVVIPGVQRYEFAAVLP | < -0.25
VSVVEASTARVNVDSVPSSK | < -0.25
ISLVA | < -0.25
KRTRVLTDGEP | < -0.25
SGETFARTSRLYCHVECRPV | < -0.25
IQRYLGSAVTI | < -0.25
GRVWFVVRWEVLATSWYHRC | < -0.25
YMLVGRNEQRYWGRTRCIEI | < -0.25
QETACPTLSVCGLVREARGP | < -0.25
RQIYMGPTWVFATIWM | < -0.25
VWVIRWQIVDRVEHSL | < -0.25
ATLHALIGLRLGGYTVISVP | < -0.25
GFSGSPAGTIALSSLRFSFK | < -0.25
RCKEKRESCRSGT | < -0.25
FLLPDRWRYPIIIELY | < -0.25
NYCSWSLERLS | < -0.25
LHSTCYQSED | < -0.25
RLLSNFRFPWSSSAQSPRLV | < -0.25
LGLRP | < -0.25
CWLTG | < -0.25
GLTL | < -0.25
DDLRRAEHSAAQRLVYLVQS | < -0.25
GRPERSARV | < -0.25
ILCASQMGRSWIGQIQIFSL | < -0.25
LNLGNFDKLIKLRVA | < -0.25
YPWPSHGVSKIPDTRFTTPH | < -0.25
SLRF | < -0.25
LVPRTSSGAYVH | < -0.25
GCLLTA | < -0.25
TGVP | < -0.25
HLAILAVRRLRLSRDLFTTT | < -0.25
GLRCWWRHTIVLGPVDLVPP | < -0.25

Later entries:

Substance | growth estimate
GWSLQVPVTRLESSSRQRKL | < -0.25
NFGNGQSTWISGFGLQCPCG | < -0.25
EDSGDIVGISLKSLKGPDLY | < -0.25
NSDNGEVESAWSS | < -0.25
RGCQVLYTNKAP | < -0.25
MPDPHVISISAARIFRPDSY | < -0.25
ITKTLQGITERIRVRTHWGL | < -0.25
GMRCGTREAKGKT | < -0.25
NRYIRARTRQRGVASTTHPA | < -0.25
ISIGLSATRRG | < -0.25
SKTG | < -0.25
KCTPTPQKRQVVST | < -0.25
ETDTARPKCQNEMRTSIGAD | < -0.25
NRD | < -0.25
ALSASSRSERAHRVRLN | < -0.25
LLALYPPVVLPGPLCASLGC | < -0.25
CDGLNKR | < -0.25
GLGETGVH | < -0.25
LIHQCFGCCVKPSYAWNASW | < -0.25
PSRIRSGSTSTGAADLRSGR | < -0.25
ILQWFSFRLYI | < -0.25
AEVPS | < -0.25
GGTF | < -0.25
PLLLESLCSTSRHFAGPLWP | < -0.25
TNRG | < -0.25

Substance | growth estimate
ETFILPSRAVRAAGLLHM | < -0.25
VERPG | < -0.25
PHPSHRDCWAVGQIVLRAWI | < -0.25
HLEALAGGYILLSVVGA | < -0.25
RDCMPWDIL | < -0.25
EVGVLVKKGGS | < -0.25
ENRPLG | < -0.25
TPV | < -0.25
RDFSCRIIEGIPRSAIQFEL | < -0.25
RTGMIGLIHCDGRWVLINVR | < -0.25
SMK | < -0.25
GRFPRGGLIRSVGGELAVWD | < -0.25
YCAAYRAIHVELTTKGNRPY | < -0.25
WYGKPTNLVGR | < -0.25
LFLSFKSICGSGLLLTIARL | < -0.25
MER | -0.243
VLRAVE | < -0.25
CQTRDQVGNL | < -0.25
NLQTSRVWRAVELRGYKKV | < -0.25
SGTEIGSGLREIMG | < -0.25
GTSKTTCLIGRAPLWDAIIY | < -0.25
CRGPPSTGNGGTALLGFSQP | < -0.25
QLRTTTIMSIGYLAIFYGDR | < -0.25
AHIPCSPGSVPRIAPVTSAW | < -0.25
WPIIESQQHQ | < -0.25

Substance | growth estimate
LLYSNPFVVG | -0.246
YRPRSYHPKDIFL | < -0.25
EGAISSYRALHWQ | < -0.25
NSYLGAQPAKARAASGTTPN | < -0.25
ASRRALRVRLAGPGVYIATP | < -0.25
GVPRYNVYIVDGTTGRRCQG | -0.245
KPLTLAPS | < -0.25
VDDASWVFSQGPNFIACRSM | < -0.25
TNPGV | < -0.25
VQRLGDTLVNPGLLRYARTG | < -0.25
IWRLVGIVKPSLLHVRSRCP | < -0.25
IMYCSQVSGRPYNL | < -0.25
DWDRPWRVARRPITPRILGT | < -0.25
SLLASGQCISLVRSHA | < -0.25
CSLAPFLVRVGVLRKNI | < -0.25
ARQRSPLRVGKGEGLSRGSI | -0.245
LGRRT | -0.229
GEDLYGSLGRRVD | < -0.25
RGDANLNLVADLYQKRDWLV | < -0.25
SWRSSDYVSLCGLRTGNLAG | < -0.25
SCSCDRAFSTFELAPHNAFI | < -0.25
GRTWWHGSNIISVSANTLDL | < -0.25
